Data published in article PMC10814579.
No constants are given. Whether binding was seen depends on the method and setting. Binding seen in cells or lysates may run through a third protein. A result given as binding can be weak or reduced; the word gives no strength.

Protein sequences, listed by entry. Tags and fused reporters are not part of them. Lines headed by an entry give the natural chain unless they say otherwise; changes in a name come on top.
UniProt Q8C9B9: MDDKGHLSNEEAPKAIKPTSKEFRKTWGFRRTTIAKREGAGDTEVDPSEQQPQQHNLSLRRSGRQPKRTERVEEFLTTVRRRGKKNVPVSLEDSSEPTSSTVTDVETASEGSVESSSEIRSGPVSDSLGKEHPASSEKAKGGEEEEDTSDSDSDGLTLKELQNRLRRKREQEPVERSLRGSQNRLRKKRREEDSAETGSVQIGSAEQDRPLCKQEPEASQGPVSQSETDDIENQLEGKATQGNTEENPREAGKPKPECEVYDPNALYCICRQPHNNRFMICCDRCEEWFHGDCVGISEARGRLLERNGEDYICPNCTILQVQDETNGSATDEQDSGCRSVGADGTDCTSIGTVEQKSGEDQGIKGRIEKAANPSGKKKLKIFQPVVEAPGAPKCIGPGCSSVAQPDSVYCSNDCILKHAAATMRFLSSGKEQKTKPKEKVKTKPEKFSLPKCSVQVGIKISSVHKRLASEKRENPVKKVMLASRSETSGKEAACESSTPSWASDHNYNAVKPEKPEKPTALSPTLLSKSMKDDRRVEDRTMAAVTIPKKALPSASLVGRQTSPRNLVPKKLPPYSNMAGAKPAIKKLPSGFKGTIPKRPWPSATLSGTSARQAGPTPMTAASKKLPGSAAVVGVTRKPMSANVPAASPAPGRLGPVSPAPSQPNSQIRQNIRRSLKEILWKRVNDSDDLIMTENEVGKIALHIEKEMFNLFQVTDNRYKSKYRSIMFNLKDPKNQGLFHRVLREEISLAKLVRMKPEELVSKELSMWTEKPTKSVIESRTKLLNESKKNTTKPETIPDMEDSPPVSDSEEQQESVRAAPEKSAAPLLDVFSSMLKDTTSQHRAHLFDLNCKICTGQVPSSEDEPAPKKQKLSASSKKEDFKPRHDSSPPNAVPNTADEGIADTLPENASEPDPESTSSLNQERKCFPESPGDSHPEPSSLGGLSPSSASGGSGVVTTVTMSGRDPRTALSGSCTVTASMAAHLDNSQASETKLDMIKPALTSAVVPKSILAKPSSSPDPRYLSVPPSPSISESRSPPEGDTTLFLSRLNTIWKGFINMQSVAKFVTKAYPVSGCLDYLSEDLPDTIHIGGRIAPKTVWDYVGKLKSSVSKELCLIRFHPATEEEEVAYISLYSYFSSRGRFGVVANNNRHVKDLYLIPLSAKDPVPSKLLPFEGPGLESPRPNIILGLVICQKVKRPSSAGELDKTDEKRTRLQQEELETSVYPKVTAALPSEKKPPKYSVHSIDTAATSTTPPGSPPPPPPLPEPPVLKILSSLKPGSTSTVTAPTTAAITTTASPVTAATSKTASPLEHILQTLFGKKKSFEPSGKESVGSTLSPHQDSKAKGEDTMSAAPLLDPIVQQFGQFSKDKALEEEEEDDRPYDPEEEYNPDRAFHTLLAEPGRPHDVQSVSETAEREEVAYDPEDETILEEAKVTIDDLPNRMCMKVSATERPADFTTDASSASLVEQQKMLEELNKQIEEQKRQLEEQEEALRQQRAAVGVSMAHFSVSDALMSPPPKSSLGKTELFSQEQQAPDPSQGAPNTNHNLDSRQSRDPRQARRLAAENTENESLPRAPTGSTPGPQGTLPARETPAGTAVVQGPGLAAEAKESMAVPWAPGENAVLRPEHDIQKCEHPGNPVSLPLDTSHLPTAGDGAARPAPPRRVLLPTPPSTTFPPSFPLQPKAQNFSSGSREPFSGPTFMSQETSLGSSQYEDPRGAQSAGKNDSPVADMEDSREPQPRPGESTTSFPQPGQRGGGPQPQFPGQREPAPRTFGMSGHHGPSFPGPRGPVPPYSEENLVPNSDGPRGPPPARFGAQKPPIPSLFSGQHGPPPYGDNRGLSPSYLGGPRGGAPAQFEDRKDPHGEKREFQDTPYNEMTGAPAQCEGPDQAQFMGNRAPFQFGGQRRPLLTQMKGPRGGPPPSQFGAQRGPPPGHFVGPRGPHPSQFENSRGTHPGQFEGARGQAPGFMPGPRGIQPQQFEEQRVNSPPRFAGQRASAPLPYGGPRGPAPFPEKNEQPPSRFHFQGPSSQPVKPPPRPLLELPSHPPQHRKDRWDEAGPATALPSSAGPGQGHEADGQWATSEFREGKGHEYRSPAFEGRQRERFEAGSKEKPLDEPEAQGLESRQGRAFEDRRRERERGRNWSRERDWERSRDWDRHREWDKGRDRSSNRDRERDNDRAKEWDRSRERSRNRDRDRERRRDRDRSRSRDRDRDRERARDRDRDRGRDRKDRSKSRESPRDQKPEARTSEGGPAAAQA
UniProt P11103: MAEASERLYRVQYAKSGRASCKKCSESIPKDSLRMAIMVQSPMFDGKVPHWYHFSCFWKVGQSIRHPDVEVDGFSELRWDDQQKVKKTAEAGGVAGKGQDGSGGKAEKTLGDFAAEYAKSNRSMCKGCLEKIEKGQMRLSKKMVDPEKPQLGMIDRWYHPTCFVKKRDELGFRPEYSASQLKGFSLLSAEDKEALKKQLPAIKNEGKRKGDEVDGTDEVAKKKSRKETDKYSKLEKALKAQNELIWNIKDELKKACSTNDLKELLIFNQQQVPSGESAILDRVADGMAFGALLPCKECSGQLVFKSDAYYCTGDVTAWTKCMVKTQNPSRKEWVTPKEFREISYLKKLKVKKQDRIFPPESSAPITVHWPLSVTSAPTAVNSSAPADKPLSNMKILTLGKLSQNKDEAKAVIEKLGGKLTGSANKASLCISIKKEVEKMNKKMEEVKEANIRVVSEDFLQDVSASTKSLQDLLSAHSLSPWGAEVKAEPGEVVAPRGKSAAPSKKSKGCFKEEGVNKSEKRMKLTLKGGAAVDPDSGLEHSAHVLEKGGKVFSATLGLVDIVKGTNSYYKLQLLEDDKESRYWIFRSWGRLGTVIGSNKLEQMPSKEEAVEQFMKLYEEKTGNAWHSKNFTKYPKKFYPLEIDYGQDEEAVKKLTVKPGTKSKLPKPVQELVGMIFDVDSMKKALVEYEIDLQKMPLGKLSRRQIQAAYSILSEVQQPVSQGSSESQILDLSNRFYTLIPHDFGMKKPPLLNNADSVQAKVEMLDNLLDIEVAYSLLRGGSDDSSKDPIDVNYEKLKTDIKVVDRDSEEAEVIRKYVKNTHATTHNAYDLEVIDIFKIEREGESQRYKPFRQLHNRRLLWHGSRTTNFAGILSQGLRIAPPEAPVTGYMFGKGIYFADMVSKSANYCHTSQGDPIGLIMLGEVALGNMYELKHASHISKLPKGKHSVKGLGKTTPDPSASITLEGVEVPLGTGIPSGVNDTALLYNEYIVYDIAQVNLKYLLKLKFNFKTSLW

Target: modified HA-DIDO-NT construct with an inactivating mutation in the PHD domain (mouse) (UniProt Q8C9B9)
Test: co-IP; lysates of transiently transfected NIH-3T3 cells (untreated, Olaparib- or Camptothecin-treated; RNase A added to lysates in one experiment) immunoprecipitated with anti-HA antibody (anti-DIDO3 CT-specific antibody for ∆NT and SPCT), Protein A/G magnetic beads, Western blot for endogenous PARP1 and DHX9

binding: binds
Substance: PARP1 (from UniProt P11103 1-1013)
